Measurements from the supplement of paper PMC7661543.
± gives the standard deviation of the averaged measurements. The effect of the compound repeats well; differences between the knockouts mostly do not.

Tests used:
Assay in all cases: relative cell number vs DMSO control (72 h) (% of DMSO); higher = less growth inhibition (more cells)
[1] = tested on: MDA-MB-231
Experimental: (§1)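 QMAP-Seq: a pool of 5 breast cancer cell lines (ZR-75-1, SKBR3, HCC-38, MDA-MB-231, BT-20), each carrying 12 doxycycline-inducible Cas9 sgRNA perturbations (11 knockouts plus non-targeting sgNT), was treated with compounds for 72 h at four 10-fold doses (10 nM-10 uM or 1 nM-1 uM range). Barcodes were amplified and sequenced, and cell number was interpolated from 293T spike-in standard curves. The result is expressed as % of the median of DMSO wells. Two biological replicates.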

[2] = tested on: SKBR3
Experimental: as §1

[3] = tested on: ZR-75-1
Experimental: as §1

CN(C)C(=O)c1ccc(S(=O)(=O)c2ccc(NC(=O)[C@@](C)(O)C(F)(F)F)c(Cl)c2)cc1 [AZD7545]
relative cell number
Details | [1] | [2] | [3]
sgRNA knockout: sgATF3, 10 nM | 91.8 ± 15 | 107 ± 13 | 121 ± 5.5
sgRNA knockout: sgATF3, 100 nM | 125 ± 2.5 | 103.6 ± 0.66 | 79.7 ± 8.4
sgRNA knockout: sgATF3, 1000 nM | 84.7 ± 19 | 84.8 ± 36 | 85.6 ± 31
sgRNA knockout: sgATF3, 10000 nM | 90 ± 8.2 | 91 ± 29 | 44.5 ± 1.7
sgRNA knockout: sgATF4, 10 nM | 114 ± 36 | 120 ± 15 | 112 ± 29
sgRNA knockout: sgATF4, 100 nM | 95.7 ± 37 | 89.2 ± 1.9 | 117 ± 6.1
sgRNA knockout: sgATF4, 1000 nM | 72.3 ± 12 | 92.1 ± 32 | 90 ± 5
sgRNA knockout: sgATF4, 10000 nM | 120 ± 10 | 81.4 ± 9.6 | 32.7 ± 3.8
sgRNA knockout: sgATF6, 10 nM | 96.7 ± 18 | 94.8 ± 3 | 75.2 ± 8.8
sgRNA knockout: sgATF6, 100 nM | 88 ± 2.7 | 98.2 ± 14 | 97.1 ± 20
sgRNA knockout: sgATF6, 1000 nM | 114 ± 16 | 105 ± 22 | 88.1 ± 17
sgRNA knockout: sgATF6, 10000 nM | 89.4 ± 11 | 67.9 ± 16 | 21.1 ± 0.71
sgRNA knockout: sgATG7, 10 nM | 103 ± 7.8 | 101 ± 28 | 110 ± 4.4
sgRNA knockout: sgATG7, 100 nM | 96.2 ± 26 | 96.2 ± 10 | 106 ± 1.4
sgRNA knockout: sgATG7, 1000 nM | 87.9 ± 1.6 | 101 ± 12 | 136 ± 28
sgRNA knockout: sgATG7, 10000 nM | 87 ± 7.5 | 83.9 ± 9.7 | 47.9 ± 5.2
sgRNA knockout: sgERN1, 10 nM | 82 ± 6.2 | 104 ± 16 | 118 ± 21
sgRNA knockout: sgERN1, 100 nM | 113 ± 10 | 112 ± 24 | 104 ± 8.4
sgRNA knockout: sgERN1, 1000 nM | 79.3 ± 8.7 | 98.6 ± 19 | 116 ± 17
sgRNA knockout: sgERN1, 10000 nM | 79.7 ± 0.88 | 90.6 ± 8.1 | 51.1 ± 12
sgRNA knockout: sgHSF1, 10 nM | 107 ± 5.7 | 97.29 ± 0.62 | –
sgRNA knockout: sgHSF1, 100 nM | 99.6 ± 9.5 | 80.9 ± 15 | –
sgRNA knockout: sgHSF1, 1000 nM | 91 ± 10 | 91.3 ± 26 | –
sgRNA knockout: sgHSF1, 10000 nM | 85.3 ± 14 | 73 ± 6.1 | –
sgRNA knockout: sgHSF2, 10 nM | 96.4 ± 4.1 | 107 ± 14 | 120 ± 7
sgRNA knockout: sgHSF2, 100 nM | 107 ± 22 | 84.9 ± 6.7 | 89.3 ± 18
sgRNA knockout: sgHSF2, 1000 nM | 99.7 ± 15 | 96.1 ± 35 | 118 ± 26
sgRNA knockout: sgHSF2, 10000 nM | 89.1 ± 15 | 80.6 ± 24 | 48.8 ± 5.4
sgRNA knockout: sgKEAP1, 10 nM | 102 ± 8 | 91.1 ± 5 | –
sgRNA knockout: sgKEAP1, 100 nM | 83.6 ± 4.7 | 91.1 ± 2 | –
sgRNA knockout: sgKEAP1, 1000 nM | 101 ± 4.3 | 83.3 ± 41 | –
sgRNA knockout: sgKEAP1, 10000 nM | 76.6 ± 24 | 81.4 ± 4 | –
sgRNA knockout: sgNFE2L2, 10 nM | 109 ± 23 | 98.6 ± 35 | 99.9 ± 12
sgRNA knockout: sgNFE2L2, 100 nM | 98.9 ± 22 | 87.3 ± 1.9 | 105 ± 28
sgRNA knockout: sgNFE2L2, 1000 nM | 74.28 ± 0.22 | 89.8 ± 20 | 93 ± 49
sgRNA knockout: sgNFE2L2, 10000 nM | 93 ± 5.8 | 65.7 ± 7.9 | 50.5 ± 17
sgRNA knockout: sgSLC35F2, 10 nM | 112 ± 20 | 97.1 ± 22 | 130 ± 20
sgRNA knockout: sgSLC35F2, 100 nM | 103 ± 9.1 | 99.2 ± 12 | 112 ± 31
sgRNA knockout: sgSLC35F2, 1000 nM | 91.3 ± 27 | 88.7 ± 6.2 | 135 ± 50
sgRNA knockout: sgSLC35F2, 10000 nM | 87.4 ± 15 | 74 ± 4.3 | 39.3 ± 14
sgRNA knockout: sgXBP1, 10 nM | 96.3 ± 19 | 109 ± 42 | 87.6 ± 4.1
sgRNA knockout: sgXBP1, 100 nM | 99.7 ± 38 | 92.7 ± 3.9 | 83.7 ± 26
sgRNA knockout: sgXBP1, 1000 nM | 107 ± 11 | 98.2 ± 35 | 95.99 ± 0.71
sgRNA knockout: sgXBP1, 10000 nM | 101 ± 8 | 83.3 ± 23 | 46.7 ± 16
